# In US20020076827A1, “Methods for diagnosing thyroid conditions and for monitoring thyroxine therapy” (priority 2000, published 2002):
# At least one compound was matched to its structure with a doubt left.
# Experiment: Stability of urine standard sub-pools measured monthly
# Assay type: physicochemical
# Conditions: 2 ml vials stored at -20 degrees Centigrade
# Protocol: These sub-pools were aliquoted into 2 ml vials and stored as above.
smiles,measurement,value
"NC(Cc1cc(I)c(Oc2cc(I)c(O)c(I)c2)c(I)c1)C(=O)O (stereo not shown) [T4, O-(4-hydroxy-3,5-didiodophenyl)-3,5-diiodotyrosine]",concentration in urine standard sub-pools over time,unchanged for over a year
